Test results as given in publication PMC7221550, “Membrane Phospholipids and Polyphosphates as Cofactors and Binding Molecules of SERPINA12 (vaspin)” (Molecules, 2020).

Protein sequences, listed by entry. Tags and fused reporters are not part of them. Lines headed by an entry give the natural chain unless they say otherwise; changes in a name come on top.
UniProt P49862: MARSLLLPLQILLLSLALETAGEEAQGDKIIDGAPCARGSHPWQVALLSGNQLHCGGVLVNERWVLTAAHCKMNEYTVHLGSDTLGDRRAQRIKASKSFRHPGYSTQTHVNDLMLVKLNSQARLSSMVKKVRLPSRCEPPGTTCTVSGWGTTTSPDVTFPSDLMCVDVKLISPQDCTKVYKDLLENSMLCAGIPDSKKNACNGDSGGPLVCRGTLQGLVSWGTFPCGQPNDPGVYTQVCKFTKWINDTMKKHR

Biological target: Recombinant human kallikrein 7 (KLK7) (human, UniProt P49862 30-253)
Assay: SDS-PAGE of the covalent serpin-protease complex; vaspin incubated with 3 µM recombinant KLK7 (molar ratio protease/serpin 3:1) for 1 min (2 min in Figure 2), with or without PtdInsPs, unfractionated heparin or polyP; SDS-PAGE, Coomassie staining, densitometry of the 70 kDa complex band; both purified

Row | binding | Binder
1 | binds | Recombinant human vaspin wild type (visceral adipose tissue derived serine protease inhibitor, SERPINA12) (natural protein) KPSFSPRNYKALSEVQGWKQRMAAKELARQNMDLGFKLLKKLAFYNPGRNIFLSPLSISTAFSMLCLGAQDSTLDEIKQGFNFRKMPEKDLHEGFHYIIHELTQKTQDLKLSIGNTLFIDQRLQPQRKFLEDAKNFYSAETILTNFQNLEMAQKQINDFISQKTHGKINNLIENIDPGTVMLLANYIFFRARWKHEFDPNVTKEEDFFLEKNSSVKVPMMFRSGIYQVGYDDKLSCTILEIPYQKNITAIFILPDEGKLKHLEKGLQVDTFSRWKTLLSRRVVDVSVPRLHMTGTFDLKKTLSYIGVSKIFEEHGDLTKIAPHRSLKVGEAVHKAELKMDERGTEGAAGTGAQTLPMETPLVVKIDKPYLLLIYSEKIPSVLFLGKIVNPIGK
2 | binds | Vaspin variant R211A/K359A (protein, UniProt Q8IW75 22-414) KPSFSPRNYKALSEVQGWKQRMAAKELARQNMDLGFKLLKKLAFYNPGRNIFLSPLSISTAFSMLCLGAQDSTLDEIKQGFNFRKMPEKDLHEGFHYIIHELTQKTQDLKLSIGNTLFIDQRLQPQRKFLEDAKNFYSAETILTNFQNLEMAQKQINDFISQKTHGKINNLIENIDPGTVMLLANYIFFAARWKHEFDPNVTKEEDFFLEKNSSVKVPMMFRSGIYQVGYDDKLSCTILEIPYQKNITAIFILPDEGKLKHLEKGLQVDTFSRWKTLLSRRVVDVSVPRLHMTGTFDLKKTLSYIGVSKIFEEHGDLTKIAPHRSLKVGEAVHKAELAMDERGTEGAAGTGAQTLPMETPLVVKIDKPYLLLIYSEKIPSVLFLGKIVNPIGK
3 | binds | Non-heparin binding (NHB) vaspin variant K188A/K131A/R211A/K359A/R363A (protein, UniProt Q8IW75 22-414) KPSFSPRNYKALSEVQGWKQRMAAKELARQNMDLGFKLLKKLAFYNPGRNIFLSPLSISTAFSMLCLGAQDSTLDEIKQGFNFRKMPEKDLHEGFHYIIHELTQKTQDLALSIGNTLFIDQRLQPQRKFLEDAKNFYSAETILTNFQNLEMAQKQINDFISQKTHGAINNLIENIDPGTVMLLANYIFFAARWKHEFDPNVTKEEDFFLEKNSSVKVPMMFRSGIYQVGYDDKLSCTILEIPYQKNITAIFILPDEGKLKHLEKGLQVDTFSRWKTLLSRRVVDVSVPRLHMTGTFDLKKTLSYIGVSKIFEEHGDLTKIAPHRSLKVGEAVHKAELAMDEAGTEGAAGTGAQTLPMETPLVVKIDKPYLLLIYSEKIPSVLFLGKIVNPIGK

No constants are given. Whether binding was seen depends on the method and setting. A result given as binding can be weak or reduced; the word gives no strength.
